Measurements published in patent publication US20110256557A1, “IDENTIFYING PARATHYROID HORMONE AGONISTS AND ANTAGONISTS” (DISCOVERYBIOMED, INC., priority 2008, published 2011).
Results are given in words; binding and its absence hold for the method and conditions named. For part of these data: In cells and extracts the contact can be indirect. Some results given as binding are weak or reduced against the parent protein; the word gives no strength. Values belong to the molecule of their own block, whether it stands above or below them.

Chains of the proteins cited; added tags and fusions are not shown. Lines headed by an entry give the natural chain unless they say otherwise; changes in a name come on top. A line that says so, or that is headed by a name, gives the form on record, which may keep a tag or linker. Residues count along the entry.
UniProt Q03431, residues 27-593: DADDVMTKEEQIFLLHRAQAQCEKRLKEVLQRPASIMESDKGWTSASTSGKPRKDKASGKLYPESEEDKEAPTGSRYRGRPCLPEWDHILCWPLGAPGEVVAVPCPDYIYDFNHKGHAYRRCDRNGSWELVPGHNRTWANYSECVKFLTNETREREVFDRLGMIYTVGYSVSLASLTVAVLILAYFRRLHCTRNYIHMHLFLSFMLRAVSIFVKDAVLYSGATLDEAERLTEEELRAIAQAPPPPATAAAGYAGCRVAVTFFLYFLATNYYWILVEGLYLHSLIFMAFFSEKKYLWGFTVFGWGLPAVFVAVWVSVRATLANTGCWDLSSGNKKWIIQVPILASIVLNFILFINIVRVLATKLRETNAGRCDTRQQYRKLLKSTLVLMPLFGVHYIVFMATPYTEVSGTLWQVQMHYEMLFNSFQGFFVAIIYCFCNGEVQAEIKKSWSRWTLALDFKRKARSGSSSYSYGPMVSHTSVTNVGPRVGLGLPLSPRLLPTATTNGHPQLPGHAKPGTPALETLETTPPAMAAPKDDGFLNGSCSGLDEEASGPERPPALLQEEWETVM
UniProt P25961, residues 27-591: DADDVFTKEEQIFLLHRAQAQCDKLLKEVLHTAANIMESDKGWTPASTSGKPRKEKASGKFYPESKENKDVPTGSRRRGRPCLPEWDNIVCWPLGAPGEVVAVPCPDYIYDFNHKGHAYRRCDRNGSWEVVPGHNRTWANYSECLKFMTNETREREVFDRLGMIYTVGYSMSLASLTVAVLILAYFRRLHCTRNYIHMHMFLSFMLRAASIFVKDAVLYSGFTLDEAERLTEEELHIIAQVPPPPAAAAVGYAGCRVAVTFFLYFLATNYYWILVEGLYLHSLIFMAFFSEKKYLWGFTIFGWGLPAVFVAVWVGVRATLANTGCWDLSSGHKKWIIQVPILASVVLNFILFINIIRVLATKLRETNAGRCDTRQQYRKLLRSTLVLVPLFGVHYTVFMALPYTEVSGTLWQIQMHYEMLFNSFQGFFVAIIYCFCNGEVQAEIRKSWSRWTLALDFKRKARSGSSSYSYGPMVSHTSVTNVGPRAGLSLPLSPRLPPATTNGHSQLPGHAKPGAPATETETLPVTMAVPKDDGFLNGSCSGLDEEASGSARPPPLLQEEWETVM
endogenous LRP6 in UMR-106 cells (A0A0G2K0H3, form named): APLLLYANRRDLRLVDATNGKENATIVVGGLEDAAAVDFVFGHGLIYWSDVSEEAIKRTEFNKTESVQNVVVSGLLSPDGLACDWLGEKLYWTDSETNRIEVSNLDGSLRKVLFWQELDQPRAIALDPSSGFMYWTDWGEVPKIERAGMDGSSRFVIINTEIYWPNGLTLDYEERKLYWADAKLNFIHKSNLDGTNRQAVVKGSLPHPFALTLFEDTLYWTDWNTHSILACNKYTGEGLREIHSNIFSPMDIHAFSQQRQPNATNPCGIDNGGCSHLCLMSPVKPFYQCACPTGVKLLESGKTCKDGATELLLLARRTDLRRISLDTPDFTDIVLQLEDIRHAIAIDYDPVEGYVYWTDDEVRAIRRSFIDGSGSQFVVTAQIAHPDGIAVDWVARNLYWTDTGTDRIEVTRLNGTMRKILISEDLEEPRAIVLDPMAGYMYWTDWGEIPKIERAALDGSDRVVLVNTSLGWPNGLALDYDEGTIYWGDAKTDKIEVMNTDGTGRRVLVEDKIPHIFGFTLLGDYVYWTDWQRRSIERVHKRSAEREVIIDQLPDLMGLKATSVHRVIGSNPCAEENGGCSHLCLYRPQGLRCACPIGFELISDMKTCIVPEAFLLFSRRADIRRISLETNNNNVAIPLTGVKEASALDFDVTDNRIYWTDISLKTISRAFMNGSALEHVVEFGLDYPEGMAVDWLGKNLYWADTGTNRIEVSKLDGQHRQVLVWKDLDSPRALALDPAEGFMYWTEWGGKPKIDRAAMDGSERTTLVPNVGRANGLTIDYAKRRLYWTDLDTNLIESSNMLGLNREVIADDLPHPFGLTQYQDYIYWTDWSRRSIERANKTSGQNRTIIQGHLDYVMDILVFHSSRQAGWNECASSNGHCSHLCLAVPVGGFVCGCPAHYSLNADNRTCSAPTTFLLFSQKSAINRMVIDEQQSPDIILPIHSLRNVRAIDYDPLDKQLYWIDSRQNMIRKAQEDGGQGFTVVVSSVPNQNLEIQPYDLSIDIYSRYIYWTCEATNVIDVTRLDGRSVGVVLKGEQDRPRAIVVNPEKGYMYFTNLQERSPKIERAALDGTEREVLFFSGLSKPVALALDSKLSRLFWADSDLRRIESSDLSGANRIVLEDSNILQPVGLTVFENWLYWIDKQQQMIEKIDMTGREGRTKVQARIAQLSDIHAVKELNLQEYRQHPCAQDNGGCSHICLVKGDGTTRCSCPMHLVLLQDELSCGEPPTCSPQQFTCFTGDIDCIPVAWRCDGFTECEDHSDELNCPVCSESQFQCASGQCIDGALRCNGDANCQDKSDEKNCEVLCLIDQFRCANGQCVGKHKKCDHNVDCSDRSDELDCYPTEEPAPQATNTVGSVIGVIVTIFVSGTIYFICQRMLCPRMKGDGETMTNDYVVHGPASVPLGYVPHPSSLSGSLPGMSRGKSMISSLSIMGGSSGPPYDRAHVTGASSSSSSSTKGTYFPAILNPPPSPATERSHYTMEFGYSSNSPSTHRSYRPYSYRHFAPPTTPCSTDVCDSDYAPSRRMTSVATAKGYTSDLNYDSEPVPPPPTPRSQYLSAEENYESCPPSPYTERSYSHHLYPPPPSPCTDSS
UniProt O75197, residues 32-1615: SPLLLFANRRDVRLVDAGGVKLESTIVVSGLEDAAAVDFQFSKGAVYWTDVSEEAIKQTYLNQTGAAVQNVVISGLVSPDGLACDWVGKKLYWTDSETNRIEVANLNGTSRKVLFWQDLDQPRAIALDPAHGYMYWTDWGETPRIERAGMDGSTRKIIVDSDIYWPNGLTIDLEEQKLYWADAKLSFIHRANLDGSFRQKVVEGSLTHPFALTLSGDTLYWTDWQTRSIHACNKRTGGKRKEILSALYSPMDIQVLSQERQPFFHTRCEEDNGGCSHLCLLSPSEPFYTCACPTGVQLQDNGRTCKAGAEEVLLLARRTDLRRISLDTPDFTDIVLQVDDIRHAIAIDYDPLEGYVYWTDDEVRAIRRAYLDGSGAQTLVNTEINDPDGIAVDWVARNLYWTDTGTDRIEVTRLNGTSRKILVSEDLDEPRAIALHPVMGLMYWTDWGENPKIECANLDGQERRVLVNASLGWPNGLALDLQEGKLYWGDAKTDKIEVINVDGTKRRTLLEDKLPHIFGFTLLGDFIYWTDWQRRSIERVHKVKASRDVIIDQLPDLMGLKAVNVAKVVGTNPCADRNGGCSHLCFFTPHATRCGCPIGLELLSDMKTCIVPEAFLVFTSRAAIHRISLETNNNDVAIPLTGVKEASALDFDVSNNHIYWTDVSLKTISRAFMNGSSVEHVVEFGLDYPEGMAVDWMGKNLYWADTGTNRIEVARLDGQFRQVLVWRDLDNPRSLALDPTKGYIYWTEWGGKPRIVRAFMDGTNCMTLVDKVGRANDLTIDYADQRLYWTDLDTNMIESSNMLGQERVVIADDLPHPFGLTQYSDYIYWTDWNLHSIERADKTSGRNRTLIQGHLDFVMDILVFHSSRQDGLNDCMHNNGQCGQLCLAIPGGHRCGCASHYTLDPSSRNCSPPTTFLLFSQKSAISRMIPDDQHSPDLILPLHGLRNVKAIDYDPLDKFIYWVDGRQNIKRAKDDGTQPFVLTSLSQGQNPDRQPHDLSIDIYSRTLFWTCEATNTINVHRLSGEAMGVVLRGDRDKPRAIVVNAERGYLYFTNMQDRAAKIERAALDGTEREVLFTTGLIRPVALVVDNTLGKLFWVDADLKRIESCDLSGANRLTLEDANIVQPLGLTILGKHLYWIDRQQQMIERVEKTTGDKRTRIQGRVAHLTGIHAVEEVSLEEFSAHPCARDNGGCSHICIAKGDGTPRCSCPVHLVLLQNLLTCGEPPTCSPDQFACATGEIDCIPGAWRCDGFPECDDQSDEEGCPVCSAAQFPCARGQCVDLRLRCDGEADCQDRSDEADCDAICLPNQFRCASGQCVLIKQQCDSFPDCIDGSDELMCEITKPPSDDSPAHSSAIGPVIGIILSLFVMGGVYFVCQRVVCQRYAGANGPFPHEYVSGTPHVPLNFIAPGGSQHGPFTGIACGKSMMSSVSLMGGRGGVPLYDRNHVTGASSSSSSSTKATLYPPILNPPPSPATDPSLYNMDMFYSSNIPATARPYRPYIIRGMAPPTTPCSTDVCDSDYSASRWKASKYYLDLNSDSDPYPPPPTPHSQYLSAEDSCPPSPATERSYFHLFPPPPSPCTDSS

Assays:
[1] = target: PTH1R tagged with HA (exogenous) (UniProt Q03431); experiment: co-IP from cells co-expressing PTH1R and LRP6N+T
[2] = target: PTH1R tagged with HA (exogenous) (UniProt Q03431); experiment: co-IP, Western blot, HEK293 cells
[3] = target: endogenous PTH1R in UMR-106 cells (rat) (UniProt P25961); experiment: co-IP with antibodies to LRP6 from lysates of PTH-treated UMR-106 cells
[4] = target: endogenous PTH1R in UMR-106 cells (rat) (UniProt P25961); experiment: co-IP, Western blot, UMR-106 cells
[5] = target: PTH1R tagged with HA (exogenous) (UniProt Q03431); experiment: immunofluorescence colocalization on HA-PTH1R-transfected cells

Molecule: LRP6N+T (LRP6 N-terminal plus the transmembrane domain) tagged with VSVG (from UniProt O75581 20-1393) (receptor)
- binding [1]: binds
- binding [2]: binds

B1: LRP6N-IgG: LRP6 extracellular domain fused with IgG (protein)
chain: APLLLYANRRDLRLVDATNGKENATIVVGGLEDAAAVDFVFSHGLIYWSDVSEEAIKRTEFNKTESVQNVVVSGLLSPDGLACDWLGEKLYWTDSETNRIEVSNLDGSLRKVLFWQELDQPRAIALDPSSGFMYWTDWGEVPKIERAGMDGSSRFIIINSEIYWPNGLTLDYEEQKLYWADAKLNFIHKSNLDGTNRQAVVKGSLPHPFALTLFEDILYWTDWSTHSILACNKYTGEGLREIHSDIFSPMDIHAFSQQRQPNATNPCGIDNGGCSHLCLMSPVKPFYQCACPTGVKLLENGKTCKDGATELLLLARRTDLRRISLDTPDFTDIVLQLEDIRHAIAIDYDPVEGYIYWTDDEVRAIRRSFIDGSGSQFVVTAQIAHPDGIAVDWVARNLYWTDTGTDRIEVTRLNGTMRKILISEDLEEPRAIVLDPMVGYMYWTDWGEIPKIERAALDGSDRVVLVNTSLGWPNGLALDYDEGKIYWGDAKTDKIEVMNTDGTGRRVLVEDKIPHIFGFTLLGDYVYWTDWQRRSIERVHKRSAEREVIIDQLPDLMGLKATNVHRVIGSNPCAEENGGCSHLCLYRPQGLRCACPIGFELISDMKTCIVPEAFLLFSRRADIRRISLETNNNNVAIPLTGVKEASALDFDVTDNRIYWTDISLKTISRAFMNGSALEHVVEFGLDYPEGMAVDWLGKNLYWADTGTNRIEVSKLDGQHRQVLVWKDLDSPRALALDPAEGFMYWTEWGGKPKIDRAAMDGSERTTLVPNVGRANGLTIDYAKRRLYWTDLDTNLIESSNMLGLNREVIADDLPHPFGLTQYQDYIYWTDWSRRSIERANKTSGQNRTIIQGHLDYVMDILVFHSSRQSGWNECASSNGHCSHLCLAVPVGGFVCGCPAHYSLNADNRTCSAPTTFLLFSQKSAINRMVIDEQQSPDIILPIHSLRNVRAIDYDPLDKQLYWIDSRQNMIRKAQEDGSQGFTVVVSSVPSQNLEIQPYDLSIDIYSRYIYWTCEATNVINVTRLDGRSVGVVLKGEQDRPRAVVVNPEKGYMYFTNLQERSPKIERAALDGTEREVLFFSGLSKPIALALDSRLGKLFWADSDLRRIESSDLSGANRIVLEDSNILQPVGLTVFENWLYWIDKQQQMIEKIDMTGREGRTKVQARIAQLSDIHAVKELNLQEYRQHPCAQDNGGCSHICLVKGDGTTRCSCPMHLVLLQDELSCGEPPTCSPQQFTCFTGEIDCIPVAWRCDGFTECEDHSDELNCPVCSESQFQCASGQCIDGALRCNGDANCQDKSDEKNCEVLCLIDQFRCANGQCIGKHKKCDHNVDCSDKSDELDCYPTEEPAPQA
modifications: left off: a dimerising Fc or GST
- binding [5]: binds

Other lines, results leading:

- binding [3]: binds
- binding [4]: binds
Molecule: endogenous LRP6 in UMR-106 cells (from UniProt A0A0G2K0H3 20-1611) (receptor)

- binding [2]: binds
Molecule: human LRP5 tagged with HA (exogenous) (from UniProt O75197 32-1615) (receptor)
